Source: publication PMC9655198
Results are given in words; binding and its absence hold for the method and conditions named. Binding seen in cells or lysates may run through a third protein. Some entries that bind do so weakly or less than the wild type.

Chains of the proteins cited; added tags and fusions are not shown. Lines headed by an entry give the natural chain unless they say otherwise; changes in a name come on top. A line that says so, or that is headed by a name, gives the form on record, which may keep a tag or linker.
UniProt Q9HCL3: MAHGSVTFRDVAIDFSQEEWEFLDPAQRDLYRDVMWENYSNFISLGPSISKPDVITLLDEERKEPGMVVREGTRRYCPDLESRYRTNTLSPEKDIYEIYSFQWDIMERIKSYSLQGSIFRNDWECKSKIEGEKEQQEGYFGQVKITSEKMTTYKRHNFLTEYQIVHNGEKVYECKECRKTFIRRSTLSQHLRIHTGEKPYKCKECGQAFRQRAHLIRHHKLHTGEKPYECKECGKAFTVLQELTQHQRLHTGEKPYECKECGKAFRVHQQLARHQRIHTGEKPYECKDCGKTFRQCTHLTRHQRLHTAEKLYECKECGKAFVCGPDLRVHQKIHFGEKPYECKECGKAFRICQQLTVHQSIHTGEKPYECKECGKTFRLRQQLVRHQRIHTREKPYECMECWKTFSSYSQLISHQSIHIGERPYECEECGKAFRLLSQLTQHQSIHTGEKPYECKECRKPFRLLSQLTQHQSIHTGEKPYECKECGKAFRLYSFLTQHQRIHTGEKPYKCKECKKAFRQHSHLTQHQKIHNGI
GST-ZFP14 DV:AA mutant (Q9HCL3, form named): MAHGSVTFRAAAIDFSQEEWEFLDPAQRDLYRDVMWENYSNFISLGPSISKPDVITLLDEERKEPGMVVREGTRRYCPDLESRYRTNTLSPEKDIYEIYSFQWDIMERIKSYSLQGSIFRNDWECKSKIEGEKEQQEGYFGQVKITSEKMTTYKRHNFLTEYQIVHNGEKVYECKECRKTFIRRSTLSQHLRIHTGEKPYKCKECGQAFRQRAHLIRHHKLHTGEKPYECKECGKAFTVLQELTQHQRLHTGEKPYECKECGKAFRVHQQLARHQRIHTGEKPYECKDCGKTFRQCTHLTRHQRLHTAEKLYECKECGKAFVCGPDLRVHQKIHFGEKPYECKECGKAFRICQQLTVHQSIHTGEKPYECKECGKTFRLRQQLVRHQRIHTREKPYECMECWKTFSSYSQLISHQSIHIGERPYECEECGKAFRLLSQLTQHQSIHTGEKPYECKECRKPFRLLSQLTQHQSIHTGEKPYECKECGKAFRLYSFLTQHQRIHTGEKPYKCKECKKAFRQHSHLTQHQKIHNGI
UniProt Q00987: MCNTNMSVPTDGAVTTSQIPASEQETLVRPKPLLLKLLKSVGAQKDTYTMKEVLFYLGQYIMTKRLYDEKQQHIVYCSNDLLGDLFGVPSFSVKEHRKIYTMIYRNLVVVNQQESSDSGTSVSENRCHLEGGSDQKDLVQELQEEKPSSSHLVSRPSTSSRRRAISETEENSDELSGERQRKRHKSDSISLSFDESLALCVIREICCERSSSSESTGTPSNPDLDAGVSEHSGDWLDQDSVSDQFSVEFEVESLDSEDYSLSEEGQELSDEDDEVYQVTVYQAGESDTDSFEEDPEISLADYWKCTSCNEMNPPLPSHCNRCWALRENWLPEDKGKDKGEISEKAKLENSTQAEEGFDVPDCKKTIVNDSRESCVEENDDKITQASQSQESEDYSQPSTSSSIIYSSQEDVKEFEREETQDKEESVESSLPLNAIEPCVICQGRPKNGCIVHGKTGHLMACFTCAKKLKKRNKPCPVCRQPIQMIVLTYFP

Key:
[1] = target: HA-ZFP14 (human ZFP14, HA-tagged) (human) (UniProt Q9HCL3); experiment: co-IP; lysates of HCT116 cells overexpressing only HA-ZFP14 (p53 and MDM2 endogenous); IP with anti-HA or anti-p53, control IgG; IP-lysis buffer 20 mM Tris-HCl pH 7.5, 150 mM NaCl, 0.5% NP-40, 1 mM EDTA; benzonase-treated; overnight at 4 °C; Western blot
[2] = target: HA-ZFP14 (human ZFP14, HA-tagged) (human) (UniProt Q9HCL3); experiment: co-IP; lysates of HCT116 cells overexpressing p53 and HA-ZFP14; IP with anti-HA or anti-p53, control IgG; IP-lysis buffer 20 mM Tris-HCl pH 7.5, 150 mM NaCl, 0.5% NP-40, 1 mM EDTA; benzonase-treated; overnight at 4 °C; Western blot
[3] = target: GST-ZFP14 DV:AA mutant (human) (UniProt Q9HCL3); experiment: pull-down; 1 μg GST fusion protein bound to glutathione beads, incubated with HCT116 cell lysate (20 mM Tris-HCl pH 7.5, 150 mM NaCl, 0.5% NP-40) for 4 h at 4 °C; Western blot; only the target purified
[4] = target: GST-tagged full-length ZFP14 (human) (UniProt Q9HCL3); experiment: as above
[5] = target: GST-tagged full-length ZFP14 (human) (UniProt Q9HCL3); experiment: pull-down; 1 μg GST fusion protein bound to glutathione beads, incubated with HCT116-p53-KO cell lysate (20 mM Tris-HCl pH 7.5, 150 mM NaCl, 0.5% NP-40) for 4 h at 4 °C; Western blot; only the target purified

Measured: binding

endogenous MDM2 (from UniProt Q00987 1-491)
binds: all assays above
